Like-named read-outs stand apart in the source and are kept apart here. These are yes or no findings as the source states them, for the method shown. Binding seen in cells or lysates may run through a third protein. Some binding calls cover weakened binding; strength is not graded here. Sequences can lack the tags named with a protein.
Experiments:
Assay in all cases: co-IP
[1] = target: T1, CLOCK-HA (UniProt O08785)
T1 sequence: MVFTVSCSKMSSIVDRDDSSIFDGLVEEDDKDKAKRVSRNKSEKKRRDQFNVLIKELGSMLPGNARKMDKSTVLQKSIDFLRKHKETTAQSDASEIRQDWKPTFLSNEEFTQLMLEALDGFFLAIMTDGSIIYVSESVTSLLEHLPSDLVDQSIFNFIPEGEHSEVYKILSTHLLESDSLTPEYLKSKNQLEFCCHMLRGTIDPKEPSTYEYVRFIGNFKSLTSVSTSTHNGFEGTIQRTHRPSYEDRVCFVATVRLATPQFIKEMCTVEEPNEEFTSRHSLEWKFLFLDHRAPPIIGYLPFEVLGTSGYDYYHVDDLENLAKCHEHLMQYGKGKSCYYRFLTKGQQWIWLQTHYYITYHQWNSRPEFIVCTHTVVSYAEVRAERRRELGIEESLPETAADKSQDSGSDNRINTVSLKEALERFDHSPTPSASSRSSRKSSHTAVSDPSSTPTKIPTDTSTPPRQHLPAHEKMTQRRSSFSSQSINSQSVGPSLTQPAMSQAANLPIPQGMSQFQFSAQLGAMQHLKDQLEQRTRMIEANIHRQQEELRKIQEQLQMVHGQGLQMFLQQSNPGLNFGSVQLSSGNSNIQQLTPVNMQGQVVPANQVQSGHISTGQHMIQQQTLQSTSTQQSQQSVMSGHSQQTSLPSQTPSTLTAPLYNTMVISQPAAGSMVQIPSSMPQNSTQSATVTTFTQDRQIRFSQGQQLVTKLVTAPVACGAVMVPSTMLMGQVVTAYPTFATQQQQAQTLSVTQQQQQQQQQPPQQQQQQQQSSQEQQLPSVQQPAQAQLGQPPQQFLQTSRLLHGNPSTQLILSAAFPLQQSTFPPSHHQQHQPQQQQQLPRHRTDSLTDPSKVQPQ

Chains of the proteins cited; added tags and fusions are not shown. Residues count along the entry.
UniProt Q6ZQ08: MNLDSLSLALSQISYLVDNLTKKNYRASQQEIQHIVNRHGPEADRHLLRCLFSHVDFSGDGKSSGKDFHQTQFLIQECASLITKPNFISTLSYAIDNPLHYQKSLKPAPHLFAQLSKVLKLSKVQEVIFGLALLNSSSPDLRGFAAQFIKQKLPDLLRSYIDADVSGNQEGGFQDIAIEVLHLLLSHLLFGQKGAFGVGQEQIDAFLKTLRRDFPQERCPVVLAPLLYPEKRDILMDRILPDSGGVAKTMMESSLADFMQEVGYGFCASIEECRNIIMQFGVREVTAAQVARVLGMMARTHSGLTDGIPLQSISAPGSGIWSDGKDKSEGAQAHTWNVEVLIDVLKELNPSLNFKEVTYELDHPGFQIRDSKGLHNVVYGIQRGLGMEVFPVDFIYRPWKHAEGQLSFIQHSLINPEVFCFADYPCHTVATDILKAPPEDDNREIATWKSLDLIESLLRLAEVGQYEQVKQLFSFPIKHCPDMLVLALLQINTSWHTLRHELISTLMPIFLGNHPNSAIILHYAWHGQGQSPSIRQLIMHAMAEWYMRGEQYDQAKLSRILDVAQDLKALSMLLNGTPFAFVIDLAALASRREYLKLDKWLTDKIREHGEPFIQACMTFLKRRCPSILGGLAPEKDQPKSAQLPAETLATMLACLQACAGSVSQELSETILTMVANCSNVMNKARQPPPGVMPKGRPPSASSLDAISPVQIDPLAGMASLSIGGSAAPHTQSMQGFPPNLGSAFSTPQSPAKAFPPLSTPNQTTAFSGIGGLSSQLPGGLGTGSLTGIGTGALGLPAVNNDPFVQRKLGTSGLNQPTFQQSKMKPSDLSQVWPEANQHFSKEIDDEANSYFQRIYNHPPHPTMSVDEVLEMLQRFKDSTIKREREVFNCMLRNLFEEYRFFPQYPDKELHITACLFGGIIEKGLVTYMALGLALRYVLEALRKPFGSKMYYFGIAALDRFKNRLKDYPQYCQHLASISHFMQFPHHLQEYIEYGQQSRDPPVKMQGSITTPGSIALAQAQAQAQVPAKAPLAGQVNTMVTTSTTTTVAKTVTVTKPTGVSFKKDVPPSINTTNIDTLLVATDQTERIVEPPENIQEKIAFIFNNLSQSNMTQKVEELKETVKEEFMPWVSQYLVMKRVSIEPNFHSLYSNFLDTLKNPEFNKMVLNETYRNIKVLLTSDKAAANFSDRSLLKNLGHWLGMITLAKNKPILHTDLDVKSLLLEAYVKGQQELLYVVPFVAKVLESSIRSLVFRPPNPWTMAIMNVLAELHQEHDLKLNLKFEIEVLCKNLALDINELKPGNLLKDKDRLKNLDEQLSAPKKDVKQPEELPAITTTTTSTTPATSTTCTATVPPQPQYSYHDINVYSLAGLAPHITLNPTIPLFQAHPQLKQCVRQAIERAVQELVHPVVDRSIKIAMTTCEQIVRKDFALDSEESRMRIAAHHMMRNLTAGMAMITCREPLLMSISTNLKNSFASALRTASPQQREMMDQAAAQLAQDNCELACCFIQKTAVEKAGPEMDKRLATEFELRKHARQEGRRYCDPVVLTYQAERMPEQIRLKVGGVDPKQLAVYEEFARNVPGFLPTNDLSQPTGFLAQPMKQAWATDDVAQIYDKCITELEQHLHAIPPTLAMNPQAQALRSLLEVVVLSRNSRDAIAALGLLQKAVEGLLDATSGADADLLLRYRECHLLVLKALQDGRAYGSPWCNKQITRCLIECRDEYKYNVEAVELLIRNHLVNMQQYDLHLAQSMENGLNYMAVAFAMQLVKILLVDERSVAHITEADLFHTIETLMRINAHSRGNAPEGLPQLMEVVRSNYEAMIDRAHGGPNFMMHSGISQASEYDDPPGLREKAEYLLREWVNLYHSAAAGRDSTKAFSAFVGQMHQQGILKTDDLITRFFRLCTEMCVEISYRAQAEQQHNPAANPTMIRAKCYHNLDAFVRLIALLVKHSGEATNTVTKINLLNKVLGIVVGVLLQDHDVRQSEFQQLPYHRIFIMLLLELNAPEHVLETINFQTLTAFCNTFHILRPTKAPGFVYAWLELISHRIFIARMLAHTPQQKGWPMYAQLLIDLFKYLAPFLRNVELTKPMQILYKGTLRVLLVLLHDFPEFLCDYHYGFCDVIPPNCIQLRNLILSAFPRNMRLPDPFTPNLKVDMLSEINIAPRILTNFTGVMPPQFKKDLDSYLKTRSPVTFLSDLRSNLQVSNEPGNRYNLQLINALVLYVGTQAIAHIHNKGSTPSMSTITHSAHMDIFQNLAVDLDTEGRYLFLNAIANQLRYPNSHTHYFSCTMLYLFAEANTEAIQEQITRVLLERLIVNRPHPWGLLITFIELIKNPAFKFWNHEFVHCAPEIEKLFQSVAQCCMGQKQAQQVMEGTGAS
UniProt A5YKK6, residues 1407-2376: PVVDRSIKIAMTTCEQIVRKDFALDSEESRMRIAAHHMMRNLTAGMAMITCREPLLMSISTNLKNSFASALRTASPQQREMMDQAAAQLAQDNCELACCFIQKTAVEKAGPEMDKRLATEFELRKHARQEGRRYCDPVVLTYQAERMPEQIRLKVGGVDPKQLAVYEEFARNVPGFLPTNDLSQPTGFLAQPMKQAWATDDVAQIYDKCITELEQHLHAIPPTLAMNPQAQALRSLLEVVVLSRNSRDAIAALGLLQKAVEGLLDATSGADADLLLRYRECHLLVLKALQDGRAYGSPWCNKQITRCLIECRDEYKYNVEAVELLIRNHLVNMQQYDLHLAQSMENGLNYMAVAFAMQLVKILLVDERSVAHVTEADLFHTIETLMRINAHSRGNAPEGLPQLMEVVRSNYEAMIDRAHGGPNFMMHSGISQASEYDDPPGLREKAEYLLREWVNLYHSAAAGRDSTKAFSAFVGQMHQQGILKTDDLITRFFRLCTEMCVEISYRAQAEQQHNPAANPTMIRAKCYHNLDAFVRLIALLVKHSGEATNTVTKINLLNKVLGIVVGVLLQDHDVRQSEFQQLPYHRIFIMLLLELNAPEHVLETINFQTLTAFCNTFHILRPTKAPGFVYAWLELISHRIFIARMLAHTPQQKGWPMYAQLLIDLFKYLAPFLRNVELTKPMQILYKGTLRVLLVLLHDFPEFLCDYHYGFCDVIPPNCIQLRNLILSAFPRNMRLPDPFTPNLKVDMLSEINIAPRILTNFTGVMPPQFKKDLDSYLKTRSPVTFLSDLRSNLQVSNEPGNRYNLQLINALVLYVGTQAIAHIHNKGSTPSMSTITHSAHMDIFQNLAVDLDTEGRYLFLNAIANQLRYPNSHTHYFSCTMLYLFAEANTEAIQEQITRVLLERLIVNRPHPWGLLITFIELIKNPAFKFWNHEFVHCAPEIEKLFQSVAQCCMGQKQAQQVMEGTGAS

[2] = target: T1, CLOCK-HA; remark: listed apart in the source
[3] = target: T2, Flag-tagged CLOCK (mouse) (UniProt O08785)
T2 sequence: T1 sequence

binding [1] | binding [2] | binding [3] | Substance
no binding (condition: at ZT16) | binds | – | CNOT1 (endogenous, mouse liver) (from UniProt Q6ZQ08 1-2375)
– | – | binds | HA-tagged CNOT1-C (amino acids 1407-2376) (from UniProt A5YKK6 1407-2376) (domain or fragment)

Source: article doi:10.1101/630897
